We go through 45 molecules from the supplement of paper PMC3682954.

The test system of the assay is RAW 264.7. Briefly: cell viability (MTT) relative to vehicle control; higher = more viable cells. Conditions: stimulus: HMGB1 5 ug/ml, 18 h.
Setting [1] is: compound concentration: 1 ug/ml.

Values joined by “and” are separate entries in the source; they are usually repeats but may differ in a detail not shown here. Identical values can stand only once. Counter-ions that a name gives are not always drawn. ± gives the standard deviation of the averaged measurements. The list shows a part of the results. Many values rest on one well or one pass, so single values are uncertain.

With `Cc1cc(C(C)(C)C)cc(C)c1CC1=NCCN1`, the cell viability (usually a read-out of living cells in per cent, often relative to untreated cells) (compound concentration: 3 uM) was 102%. Consider `Cc1cc(C(C)(C)C)cc(C)c1CC1=NCCN1` [Xylometazoline hydrochloride], for which, for the setting “compound concentration: 3 uM”, the cell viability came out at 109.9 ± 0.37%.

Regarding `CC(C)(CO)[C@@H](O)C(=O)NCCC(=O)O` [PANTOTHENIC ACID(d) Na salt], where the note is “compound concentration: 3 uM”, the cell viability worked out at 107%. Turning to `CC(C)(CO)[C@@H](O)C(=O)NCCC(=O)O` [Pantothenic acid], for the setting “compound concentration: 3 uM”, the cell viability is 89.8%. For the molecule `O=c1[nH]ccc2c(O)cccc12` [1,5-Isoquinolinediol], the cell viability (compound concentration: 3 uM) stood at 98.7%. Turning to `COc1cc2nc(N3CCN(C(=O)C4COc5ccccc5O4)CC3)nc(N)c2cc1OC` (stereo unspecified) [Doxazosin], the cell viability (compound concentration: 3 uM) was 103%. On to `COc1cc2nc(N3CCN(C(=O)C4COc5ccccc5O4)CC3)nc(N)c2cc1OC` (stereo unspecified), for which the cell viability (compound concentration: 3 uM) amounted to 92.8%. Still for that read-out and setting: the figure for `COc1cc2nc(N3CCN(C(=O)C4COc5ccccc5O4)CC3)nc(N)c2cc1OC` (stereo unspecified) [Doxazosin mesylate] is 90.8 ± 1.9%. On the same count and under the same terms, the figure for `CC(=O)Nc1ccc(OC(=O)c2ccccc2O)cc1` is 110%.

As to `O=c1c(O)c(-c2ccc(O)cc2)oc2cc(O)cc(O)c12` [Kaempferol], the cell viability under setting [1] came out at 93.6%. Consider `N[C@H]1CONC1=O` [(S)-(-)-Cycloserine], for which the cell viability (compound concentration: 3 uM) is 96.9%. Take `N[C@H]1CONC1=O` [L-Cycloserine]: under “compound concentration: 3 uM”, the cell viability is 96.4%.

As to `CCCCC1C(=O)N(c2ccccc2)N(c2ccc(O)cc2)C1=O` (stereo unspecified) [Oxyphenbutazone], the cell viability (compound concentration: 3 uM) was found to be 88.6%.

`CCCCC1C(=O)N(c2ccccc2)N(c2ccc(O)cc2)C1=O` (stereo unspecified): the cell viability (compound concentration: 3 uM) amounted to 106%. As to `O=C(CCBr)N1CCN(C(=O)CCBr)CC1`, the cell viability (compound concentration: 3 uM) was 113 ± 20%. On to `CCN(CC)C(=O)Nc1ccc(OCC(O)CNC(C)(C)C)c(C(C)=O)c1` (stereo unspecified) [Celiprolol HCl], for which the cell viability (compound concentration: 3 uM) is 101%.

For `CC(=O)O[C@]1(C(C)=O)CC[C@H]2[C@@H]3C=C(Cl)C4=CC(=O)CC[C@]4(C)[C@H]3CC[C@@]21C` [Chlormadinone acetate], the cell viability by setting is: under setting [1], 106%; (compound concentration: 3 uM) 85.2%. Take `CC(=O)O[C@]1(C(C)=O)CC[C@H]2[C@@H]3C=C(Cl)C4=CC(=O)CC[C@]4(C)[C@H]3CC[C@@]21C` [Chlormadinone Acetate]: the cell viability (compound concentration: 3 uM) is 99%. Take `CC(=O)O[C@]1(C(C)=O)CC[C@H]2[C@@H]3C=C(Cl)C4=CC(=O)CC[C@]4(C)[C@H]3CC[C@@]21C`: the cell viability (compound concentration: 3 uM) came to 107%.

As to `CCN(CC)C(C)CN1c2ccccc2Sc2ccccc21` (stereo unspecified) [Ethopropazine hydrochloride], where the note is “compound concentration: 3 uM”, the cell viability was determined as 112 ± 23%. Turning to `CCN(CC)C(C)CN1c2ccccc2Sc2ccccc21` (stereo unspecified), the cell viability (compound concentration: 3 uM) was 108%.

As to `CCCNC(=O)NS(=O)(=O)c1ccc(Cl)cc1`, the cell viability (compound concentration: 3 uM) worked out at 110%. On the same count and under the same terms, the figure for `CCCNC(=O)NS(=O)(=O)c1ccc(Cl)cc1` [Chlorpropamide] is 90.7 ± 7.4%; for `O=C1[C@H]2CCCC[C@H]2C(=O)N1CCCCN1CCN(c2nsc3ccccc23)CC1` it is 96.7%; for `CN(C)S(=O)(=O)c1ccc2c(c1)/C(=C/c1cc3c([nH]1)CCCC3)C(=O)N2` it is 97.4%. For `CN1CCN(C2Cc3ccccc3Sc3ccc(Cl)cc32)CC1` (racemic) [(±)-Octoclothepin maleate], the cell viability (compound concentration: 3 uM) is 95.8%. With `Clc1cccc(Cl)c1NC1=NCCN1`, under “compound concentration: 3 uM”, the cell viability is 102% and 95.2%.

Turning to `Clc1cccc(Cl)c1NC1=NCCN1` [Clonidine hydrochloride], the cell viability (compound concentration: 3 uM) was found to be 101 ± 8.4%. On to `Clc1cccc(Cl)c1NC1=NCCN1` [Clonidine HCl], for which the cell viability (compound concentration: 3 uM) came to 107%.

Consider `CO[C@H]1/C=C/O[C@@]2(C)Oc3c(C)c(O)c4c(O)c(c5c(nc6cc(C)ccn65)c4c3C2=O)NC(=O)/C(C)=C\C=C\[C@H](C)[C@H](O)[C@@H](C)[C@@H](O)[C@@H](C)[C@H](OC(C)=O)[C@@H]1C` [Rifaximin], for which the cell viability (compound concentration: 3 uM) came to 99.3%. On the same count and under the same terms, with `CO[C@H]1/C=C/O[C@@]2(C)Oc3c(C)c(O)c4c(O)c(c5c(nc6cc(C)ccn65)c4c3C2=O)NC(=O)/C(C)=C\C=C\[C@H](C)[C@H](O)[C@@H](C)[C@@H](O)[C@@H](C)[C@H](OC(C)=O)[C@@H]1C` the figure was 113 ± 16%. In the case of `Cc1ncc(CO)c(C=O)c1O` [Pyridoxal hydrochloride], the cell viability under setting [1] was determined as 95.5%. Turning to `N=C(N)NCCCCNC(=N)N` [Arcaine sulfate], the cell viability (compound concentration: 3 uM) worked out at 105%. As for `Nc1ccn([C@H]2C[C@H](O)[C@@H](CO)O2)c(=O)n1` [2'-Deoxycytidine monohydrate], the cell viability under setting [1] was determined as 103%.

Consider `Nc1ccn([C@H]2C[C@H](O)[C@@H](CO)O2)c(=O)n1` [2'-Deoxycytidine hydrochloride], for which, under setting [1], the cell viability worked out at 98.1%.

With `Nc1nc2c(ncn2COC(CO)CO)c(=O)[nH]1` [Ganciclovir], the cell viability (compound concentration: 3 uM) came out at 105 ± 6.2%. With `Cc1c(N=CC(O)CN2CC3CC(C2)c2cccc(=O)n2C3)c(=O)n(-c2ccccc2)n1C` (stereo unspecified), the cell viability under setting [1] worked out at 97.9%. Regarding `CNCCc1ccccn1` [Betahistine mesylate], the cell viability (compound concentration: 3 uM) is 92.3%. Consider `CNCCc1ccccn1`, for which the cell viability (compound concentration: 3 uM) came to 98.3%. Regarding `CC=CC(=O)N(CC)c1ccccc1C`, for the setting “compound concentration: 3 uM”, the cell viability was 107 ± 12%.

`CC=CC(=O)N(CC)c1ccccc1C` [Crotamiton]: the cell viability (compound concentration: 3 uM) is 123 ± 15%. Turning to `CC1CC2C3CCC4=CC(=O)C=CC4(C)C3(F)C(O)CC2(C)C1C(=O)CO` (stereo unspecified), the cell viability (compound concentration: 3 uM) was 126%. For the molecule `CN(C)C(=N)NC(=N)N` [Metformin], the cell viability (compound concentration: 3 uM) amounted to 107%. On the same count and under the same terms, with `CN(C)C(=N)NC(=N)N` the figure was 112%; with `CN(C)C(=N)NC(=N)N` [Metformin hydrochloride], 99.8%.
